# PubChem BioAssay AID651640 (Broad Institute, 2012)
# The whole screen tested about 350,000 compounds, of which about 6,000 (1.7%) were called active. This list was built around the results that the source calls inconclusive (neither active nor inactive); the mix of calls is not that of the screen. No stated cut-off is given here; in the data, active means CPE inhibition above about 20% (passing the limit was not always enough); inconclusive means no clear call, values can overlap the other calls; tested in BHK-21 cells.
# Experiment: protection of cells from dengue 2 killing – plate reader, single concentration, primary screen (AID 651640);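 further: 0% = median of neutral control wells and 100% = median of positive control wells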
# Conditions: DENV2-infected cells, cytopathic effect rescue, at 9.99 µM, active compounds read high
row,Structure (SMILES),CPE inhibition
1,COC(=O)N/N=C/c1cn(CCOc2ccc(OC)cc2)c2ccccc12,inconclusive: 25.2%
2,CC(=O)Nc1cccc(OCCCNC(=O)c2ccc(C(C)(C)C)cc2)c1,active: 31.4%
3,CC(C)C#Cc1cnc2c(c1)C(=O)N([C@@H](C)CO)C[C@@H](C)[C@@H](CN(C)C(=O)Nc1cccc(F)c1)O2,inconclusive: 38.5%
4,C[C@@H]1CCCCO[C@H](CN(C)Cc2ccccc2)[C@H](C)CN([C@@H](C)CO)C(=O)c2cc(NC(=O)c3ccccc3)ccc2O1,active: 26.8%
5,O=C(N[C@H]1c2ccccc2C[C@H]1O)[C@H]1O[C@@H](n2ccc(=O)[nH]c2=O)[C@H](O)[C@@H]1O,inconclusive: 37.4%
6,Cc1cnc(C(=O)Nc2ccc(C)c(S(=O)(=O)N(C)C)c2)cn1,inconclusive: 28.9%
7,CN1C(=O)c2cc(NC(=O)Cc3cccs3)ccc2OC[C@H]2O[C@@H](CC(=O)NCC3CC3)CC[C@H]21,inactive: 5.32%
8,CNc1ccccc(-c2ccc3cc4c(cc3n2)OCO4)c1=O,inconclusive: 62.6%
9,Cc1ccc(NC(=O)c2cc(C(=O)Nc3ccc(C)cc3)n(C)n2)cc1,active: 41.6%
10,O=C(C[C@@H]1CC[C@H]2[C@@H](COC[C@H](O)CN2C(=O)c2ccccc2F)O1)NCc1ccccc1,active: 85.7%
11,CCCn1c(COc2ccc(C(=O)O)cc2)nc2ccccc21,inconclusive: 20.4%
12,C[C@H](CO)N1C[C@H](C)[C@H](CN(C)S(=O)(=O)c2cn(C)cn2)Oc2ccc(NC(=O)Nc3ccccc3)cc2C1=O,inconclusive: 25%
13,CCCc1c(NC(=O)Nc2ccc(Cl)cc2Cl)cnn1-c1ccccc1,inconclusive: 28.5%
14,CC(C)NC(=O)N(C)C[C@H]1Oc2ccc(NS(=O)(=O)c3ccc(F)cc3)cc2CC(=O)N([C@@H](C)CO)C[C@H]1C,inconclusive: 54.7%
15,CN1CCN(S(=O)(=O)c2ccc(C#N)cc2)C(c2ccccc2)C1 (stereo not drawn),inconclusive: 44.2%
16,O=C(C[C@@H]1CC[C@H](NC(=O)C2CCOCC2)[C@H](CO)O1)Nc1nccs1,inactive: -6.69%
17,CC(C)NC(=O)N[C@@H]1CC[C@@H](CCN)O[C@H]1CO,inconclusive: 50.2%
18,COC(=O)[C@]12C[C@H](CC(=O)N3CCCC3)C(=O)N(Cc3ccccc3)C1=C[C@H](C(C)C)O[C@@H]2C1CC1,inconclusive: 42.7%
19,O=C(COC(=O)/C=C/c1ccccc1[N+](=O)[O-])Nc1ccc2[nH]c(=O)[nH]c2c1,inconclusive: 20.3%
20,C[C@@H]1CCCCO[C@@H](CN(C)C(=O)CCC(F)(F)F)[C@@H](C)CN([C@H](C)CO)C(=O)c2cc(NC(=O)Nc3ccc4c(c3)OCO4)ccc2O1,active: 42%
21,COc1cc(CN2CCNC(=O)C2CC(=O)NCCCN2CCOCC2)cc(OC)c1 (stereo not drawn),inconclusive: 20.4%
22,C[C@@H]1CN([C@H](C)CO)C(=O)c2cc(NC(=O)Nc3ccc(C(F)(F)F)cc3)ccc2O[C@@H](C)CCCCO[C@H]1CN(C)C(=O)c1ccccc1,inactive: -3.9%

row,Structure (SMILES),CPE inhibition
1,O=C(c1ccco1)N1CCN(C(=O)c2cn(-c3ccccc3)nc2-c2ccc(F)cc2)CC1,inconclusive: 42.9%
2,CN(C)N=C1c2cc(S(=O)(=O)N(C)C)ccc2-c2ccc(S(=O)(=O)N(C)C)cc21,inconclusive: 31.3%
3,O=C(NCc1ccccc1Cl)c1ccc2c(c1)OCO2,inconclusive: 40%
4,C[C@@H]1CCCCO[C@@H](CN(C)S(C)(=O)=O)[C@@H](C)CN([C@@H](C)CO)C(=O)c2cc(NC(=O)C3CCCCC3)ccc2O1,inconclusive: 20.3%
5,CSc1nc2c(c(=O)n1C)SC(C)C2 (stereo not drawn),inconclusive: 38.8%
6,C[C@@H]1CCCCO[C@@H](CN(C)S(C)(=O)=O)[C@H](C)CN([C@@H](C)CO)C(=O)c2cc(NS(=O)(=O)c3ccc(Cl)cc3)ccc2O1,active: 83.8%
7,CCOc1cc(C(=O)N(CC)CC(=O)Nc2ccc3c(c2)OCCO3)ccc1OC,inconclusive: 25.4%
8,O=C1CN(S(=O)(=O)Cc2ccccc2)C[C@H]2[C@H](c3ccc(C#CCC4CCCC4)cc3)[C@@H](CO)N12,inactive: -1.87%
9,CO[C@H]1CN(C)C(=O)c2cc(NC(C)=O)ccc2OC[C@H](C)N(C(=O)Cc2ccccn2)C[C@@H]1C,inactive: -7.61%
10,CO[C@H]1CN(C)C(=O)c2cc(NC(=O)Nc3ccc(Cl)cc3)ccc2OC[C@H](C)N(C)C[C@@H]1C,active: 50.1%
11,COc1ccc(CNC(=O)CCC(=O)Nc2nnc(C(C)C)s2)cc1,inconclusive: 25.7%
12,Cc1ccc(S(=O)(=O)N(C)C[C@@H]2Oc3ccc(NS(=O)(=O)c4ccc(Cl)cc4)cc3CC(=O)N([C@H](C)CO)C[C@H]2C)cc1,inconclusive: 67.6%
13,CN1C(=O)c2cc(NC(=O)C3CC3)ccc2OC[C@@H]2O[C@@H](CC(=O)NCc3ccccc3F)CC[C@@H]21,inactive: -6.59%
14,COc1ccc2c(c1)[nH]c1c(=O)n(/N=C/c3ccc(OC)c(CN4CCCCC4)c3)cnc12,inconclusive: 30.6%
15,CC(O)(c1cccnc1)c1nc(-c2cccc(C#N)c2)cs1 (stereo not drawn),inconclusive: 24%
16,CC(C)CC#Cc1cnc2c(c1)C(=O)N([C@H](C)CO)C[C@H](C)[C@@H](CN(C)Cc1cccc(F)c1)O2,inactive: -14.2%
17,C[C@@H]1CN([C@@H](C)CO)C(=O)c2cc(NS(=O)(=O)c3cccs3)ccc2O[C@H]1CN(C)Cc1ccc(Cl)c(Cl)c1,inactive: -5.72%
18,CC(C)C#Cc1ccc2c(c1)O[C@H](CN(C)C(=O)Cc1ccccn1)[C@@H](C)CN([C@@H](C)CO)S2(=O)=O,inactive: -10.7%
19,CCCCCOC(=O)c1ccc(NC(=O)c2cccc(NC(=O)c3ccccc3C(=O)O)c2)cc1,inconclusive: 25.5%
20,C[C@H](CO)N1C[C@H](C)[C@@H](CN(C)C(=O)c2cnccn2)Oc2ncc(C#CCC3CCCC3)cc2C1=O,active: 36.1%
21,COc1ccc(CN(C)C[C@@H]2OCCCC[C@H](C)Oc3ccc(NS(=O)(=O)c4ccc(OC)cc4)cc3C(=O)N([C@H](C)CO)C[C@@H]2C)cc1,inconclusive: 21.1%

# Exported tab-delimited: entries from further up.
row	Structure (SMILES)	CPE inhibition
1	COC(=O)N/N=C/c1cn(CCOc2ccc(OC)cc2)c2ccccc12	inconclusive: 25.2%
6	Cc1cnc(C(=O)Nc2ccc(C)c(S(=O)(=O)N(C)C)c2)cn1	inconclusive: 28.9%
8	CNc1ccccc(-c2ccc3cc4c(cc3n2)OCO4)c1=O	inconclusive: 62.6%
11	CCCn1c(COc2ccc(C(=O)O)cc2)nc2ccccc21	inconclusive: 20.4%
12	C[C@H](CO)N1C[C@H](C)[C@H](CN(C)S(=O)(=O)c2cn(C)cn2)Oc2ccc(NC(=O)Nc3ccccc3)cc2C1=O	inconclusive: 25%
18	COC(=O)[C@]12C[C@H](CC(=O)N3CCCC3)C(=O)N(Cc3ccccc3)C1=C[C@H](C(C)C)O[C@@H]2C1CC1	inconclusive: 42.7%
19	O=C(COC(=O)/C=C/c1ccccc1[N+](=O)[O-])Nc1ccc2[nH]c(=O)[nH]c2c1	inconclusive: 20.3%
2	CN(C)N=C1c2cc(S(=O)(=O)N(C)C)ccc2-c2ccc(S(=O)(=O)N(C)C)cc21	inconclusive: 31.3%
5	CSc1nc2c(c(=O)n1C)SC(C)C2 (stereo not drawn)	inconclusive: 38.8%
13	CN1C(=O)c2cc(NC(=O)C3CC3)ccc2OC[C@@H]2O[C@@H](CC(=O)NCc3ccccc3F)CC[C@@H]21	inactive: -6.59%
16	CC(C)CC#Cc1cnc2c(c1)C(=O)N([C@H](C)CO)C[C@H](C)[C@@H](CN(C)Cc1cccc(F)c1)O2	inactive: -14.2%
